Test results as given in PMC11827640.
Results are given in words; binding and its absence hold for the method and conditions named. In cells and extracts the contact can be indirect. Some binding calls cover weakened binding; strength is not graded here.

Sequences of proteins named here, by UniProt entry; tags and fusion partners are left off.
UniProt Q13535: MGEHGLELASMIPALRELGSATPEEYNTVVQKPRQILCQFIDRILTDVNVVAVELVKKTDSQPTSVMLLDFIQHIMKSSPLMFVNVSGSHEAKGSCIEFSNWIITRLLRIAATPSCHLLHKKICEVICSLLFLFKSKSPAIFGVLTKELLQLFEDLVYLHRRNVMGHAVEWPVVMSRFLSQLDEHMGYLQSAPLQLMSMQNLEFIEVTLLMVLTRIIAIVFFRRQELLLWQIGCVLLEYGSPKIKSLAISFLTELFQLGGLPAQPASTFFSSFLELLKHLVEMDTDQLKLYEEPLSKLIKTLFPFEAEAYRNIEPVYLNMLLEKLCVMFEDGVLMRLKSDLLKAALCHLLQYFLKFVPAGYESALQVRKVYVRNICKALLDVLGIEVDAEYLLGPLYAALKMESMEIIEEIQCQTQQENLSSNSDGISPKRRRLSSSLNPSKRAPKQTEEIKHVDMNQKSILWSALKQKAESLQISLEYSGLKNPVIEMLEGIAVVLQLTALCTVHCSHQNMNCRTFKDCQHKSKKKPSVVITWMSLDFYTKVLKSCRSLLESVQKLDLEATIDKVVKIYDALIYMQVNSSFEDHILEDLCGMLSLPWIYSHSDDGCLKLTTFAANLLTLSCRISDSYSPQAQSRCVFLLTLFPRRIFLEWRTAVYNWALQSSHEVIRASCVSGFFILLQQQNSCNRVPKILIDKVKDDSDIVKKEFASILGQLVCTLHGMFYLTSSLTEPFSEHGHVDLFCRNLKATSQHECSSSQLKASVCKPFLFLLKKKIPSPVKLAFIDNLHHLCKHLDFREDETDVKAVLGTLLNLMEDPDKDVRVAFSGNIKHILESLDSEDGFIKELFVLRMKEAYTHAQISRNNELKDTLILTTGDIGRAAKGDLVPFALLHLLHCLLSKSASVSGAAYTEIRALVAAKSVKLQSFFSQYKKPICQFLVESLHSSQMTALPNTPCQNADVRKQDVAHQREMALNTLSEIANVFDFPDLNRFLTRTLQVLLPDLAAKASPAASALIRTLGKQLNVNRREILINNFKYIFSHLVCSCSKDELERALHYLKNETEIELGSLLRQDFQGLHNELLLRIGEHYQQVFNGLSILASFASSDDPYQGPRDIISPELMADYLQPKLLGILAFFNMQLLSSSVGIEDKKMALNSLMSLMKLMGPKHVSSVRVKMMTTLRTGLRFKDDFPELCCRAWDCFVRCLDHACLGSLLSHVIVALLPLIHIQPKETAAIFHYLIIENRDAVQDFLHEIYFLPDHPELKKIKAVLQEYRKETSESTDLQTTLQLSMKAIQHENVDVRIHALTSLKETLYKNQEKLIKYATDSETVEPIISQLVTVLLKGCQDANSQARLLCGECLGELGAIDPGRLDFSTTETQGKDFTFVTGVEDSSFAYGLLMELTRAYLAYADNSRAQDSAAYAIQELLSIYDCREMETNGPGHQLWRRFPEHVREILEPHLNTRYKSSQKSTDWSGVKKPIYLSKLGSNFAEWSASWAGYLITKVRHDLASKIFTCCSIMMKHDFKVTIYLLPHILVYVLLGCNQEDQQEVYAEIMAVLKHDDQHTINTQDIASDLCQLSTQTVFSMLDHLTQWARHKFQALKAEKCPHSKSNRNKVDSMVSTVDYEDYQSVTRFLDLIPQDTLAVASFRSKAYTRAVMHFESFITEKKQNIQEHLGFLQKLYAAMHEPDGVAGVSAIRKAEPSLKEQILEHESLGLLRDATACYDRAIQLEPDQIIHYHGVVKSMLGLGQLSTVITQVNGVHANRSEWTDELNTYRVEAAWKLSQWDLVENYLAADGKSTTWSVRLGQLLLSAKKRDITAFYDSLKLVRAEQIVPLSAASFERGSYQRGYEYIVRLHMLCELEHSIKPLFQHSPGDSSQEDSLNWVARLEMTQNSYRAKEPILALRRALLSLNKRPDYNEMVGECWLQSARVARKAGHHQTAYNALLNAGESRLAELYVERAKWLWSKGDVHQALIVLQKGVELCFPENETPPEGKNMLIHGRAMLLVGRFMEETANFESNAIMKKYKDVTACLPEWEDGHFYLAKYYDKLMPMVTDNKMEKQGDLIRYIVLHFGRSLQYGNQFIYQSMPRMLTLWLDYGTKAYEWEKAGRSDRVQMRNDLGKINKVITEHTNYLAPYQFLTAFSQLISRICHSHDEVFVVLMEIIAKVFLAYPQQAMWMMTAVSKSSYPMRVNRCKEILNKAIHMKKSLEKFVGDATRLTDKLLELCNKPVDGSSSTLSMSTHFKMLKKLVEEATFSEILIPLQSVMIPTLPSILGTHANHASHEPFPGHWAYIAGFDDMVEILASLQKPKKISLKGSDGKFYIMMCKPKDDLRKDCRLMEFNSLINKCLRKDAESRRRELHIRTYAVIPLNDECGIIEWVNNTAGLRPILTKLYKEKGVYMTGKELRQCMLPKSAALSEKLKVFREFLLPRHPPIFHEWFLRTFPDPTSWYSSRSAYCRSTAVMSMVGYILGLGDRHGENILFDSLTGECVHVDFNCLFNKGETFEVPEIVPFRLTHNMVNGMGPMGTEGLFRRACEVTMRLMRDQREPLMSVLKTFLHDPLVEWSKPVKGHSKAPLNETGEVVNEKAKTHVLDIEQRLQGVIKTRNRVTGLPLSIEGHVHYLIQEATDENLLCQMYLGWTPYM
UniProt P21333: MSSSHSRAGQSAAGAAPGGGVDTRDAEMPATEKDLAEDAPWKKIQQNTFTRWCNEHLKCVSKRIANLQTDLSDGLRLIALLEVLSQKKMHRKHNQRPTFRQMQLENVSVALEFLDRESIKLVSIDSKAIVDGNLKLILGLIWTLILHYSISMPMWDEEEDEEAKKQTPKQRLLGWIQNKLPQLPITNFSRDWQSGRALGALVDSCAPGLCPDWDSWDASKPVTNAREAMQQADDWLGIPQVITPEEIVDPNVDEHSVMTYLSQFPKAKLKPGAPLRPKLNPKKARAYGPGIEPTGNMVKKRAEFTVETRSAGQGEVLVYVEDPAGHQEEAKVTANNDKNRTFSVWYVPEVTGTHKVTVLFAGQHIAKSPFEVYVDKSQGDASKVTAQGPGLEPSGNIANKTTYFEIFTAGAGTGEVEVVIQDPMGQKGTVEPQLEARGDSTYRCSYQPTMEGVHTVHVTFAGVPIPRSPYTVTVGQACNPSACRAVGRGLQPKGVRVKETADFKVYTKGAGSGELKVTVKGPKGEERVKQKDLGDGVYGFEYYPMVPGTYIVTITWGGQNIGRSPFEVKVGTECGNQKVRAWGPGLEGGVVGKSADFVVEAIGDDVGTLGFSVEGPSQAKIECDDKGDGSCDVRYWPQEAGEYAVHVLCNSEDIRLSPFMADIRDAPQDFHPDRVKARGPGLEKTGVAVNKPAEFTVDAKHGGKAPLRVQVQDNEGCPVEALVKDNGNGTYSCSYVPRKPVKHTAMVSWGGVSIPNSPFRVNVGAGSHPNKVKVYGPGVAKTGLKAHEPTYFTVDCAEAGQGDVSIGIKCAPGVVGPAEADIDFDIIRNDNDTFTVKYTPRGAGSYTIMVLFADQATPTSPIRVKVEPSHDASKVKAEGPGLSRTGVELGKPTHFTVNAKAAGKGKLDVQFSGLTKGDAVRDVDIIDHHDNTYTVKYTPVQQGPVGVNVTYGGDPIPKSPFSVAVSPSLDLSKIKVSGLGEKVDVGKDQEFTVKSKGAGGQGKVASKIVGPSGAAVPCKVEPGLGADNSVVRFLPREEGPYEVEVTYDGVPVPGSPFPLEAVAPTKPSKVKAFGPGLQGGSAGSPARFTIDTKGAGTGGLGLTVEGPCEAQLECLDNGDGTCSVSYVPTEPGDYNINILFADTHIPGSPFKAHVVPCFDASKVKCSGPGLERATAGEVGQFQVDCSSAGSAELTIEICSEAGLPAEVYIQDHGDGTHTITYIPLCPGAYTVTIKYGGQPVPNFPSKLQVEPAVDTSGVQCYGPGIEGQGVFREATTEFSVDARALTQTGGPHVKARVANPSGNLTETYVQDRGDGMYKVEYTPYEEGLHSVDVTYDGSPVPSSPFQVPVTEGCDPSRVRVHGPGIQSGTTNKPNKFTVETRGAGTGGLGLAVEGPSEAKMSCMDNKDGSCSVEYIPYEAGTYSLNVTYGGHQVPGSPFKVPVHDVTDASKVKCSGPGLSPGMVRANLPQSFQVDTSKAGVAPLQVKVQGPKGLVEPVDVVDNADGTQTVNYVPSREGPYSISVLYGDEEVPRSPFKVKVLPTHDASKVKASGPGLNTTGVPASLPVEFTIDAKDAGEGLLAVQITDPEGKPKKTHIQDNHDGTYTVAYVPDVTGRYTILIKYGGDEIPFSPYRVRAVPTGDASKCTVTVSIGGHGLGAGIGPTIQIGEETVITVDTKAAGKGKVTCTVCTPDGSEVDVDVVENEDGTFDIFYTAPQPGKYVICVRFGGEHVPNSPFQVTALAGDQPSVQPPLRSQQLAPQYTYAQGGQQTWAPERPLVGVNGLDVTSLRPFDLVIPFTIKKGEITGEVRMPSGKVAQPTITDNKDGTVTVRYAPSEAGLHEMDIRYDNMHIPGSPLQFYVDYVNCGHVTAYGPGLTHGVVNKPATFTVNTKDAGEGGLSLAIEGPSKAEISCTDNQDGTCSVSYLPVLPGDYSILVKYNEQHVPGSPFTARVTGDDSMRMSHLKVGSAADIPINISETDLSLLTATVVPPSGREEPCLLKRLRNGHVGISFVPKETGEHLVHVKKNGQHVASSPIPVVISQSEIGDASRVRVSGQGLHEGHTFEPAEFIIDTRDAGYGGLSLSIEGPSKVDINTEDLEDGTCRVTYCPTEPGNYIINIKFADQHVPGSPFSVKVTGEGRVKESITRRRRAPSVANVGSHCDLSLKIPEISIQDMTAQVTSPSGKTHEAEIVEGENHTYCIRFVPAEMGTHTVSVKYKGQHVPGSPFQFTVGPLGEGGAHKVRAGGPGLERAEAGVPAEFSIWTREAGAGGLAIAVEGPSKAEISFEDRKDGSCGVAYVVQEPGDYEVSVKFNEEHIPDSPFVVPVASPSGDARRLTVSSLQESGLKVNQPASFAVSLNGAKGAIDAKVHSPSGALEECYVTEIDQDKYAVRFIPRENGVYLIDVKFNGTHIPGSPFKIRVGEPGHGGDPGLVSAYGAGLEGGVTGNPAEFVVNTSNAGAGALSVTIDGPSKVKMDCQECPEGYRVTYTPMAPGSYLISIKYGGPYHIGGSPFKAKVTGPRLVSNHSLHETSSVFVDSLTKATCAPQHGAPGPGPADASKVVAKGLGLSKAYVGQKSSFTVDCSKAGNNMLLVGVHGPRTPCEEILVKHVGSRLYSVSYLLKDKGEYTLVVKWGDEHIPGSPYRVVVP
UniProt O43707: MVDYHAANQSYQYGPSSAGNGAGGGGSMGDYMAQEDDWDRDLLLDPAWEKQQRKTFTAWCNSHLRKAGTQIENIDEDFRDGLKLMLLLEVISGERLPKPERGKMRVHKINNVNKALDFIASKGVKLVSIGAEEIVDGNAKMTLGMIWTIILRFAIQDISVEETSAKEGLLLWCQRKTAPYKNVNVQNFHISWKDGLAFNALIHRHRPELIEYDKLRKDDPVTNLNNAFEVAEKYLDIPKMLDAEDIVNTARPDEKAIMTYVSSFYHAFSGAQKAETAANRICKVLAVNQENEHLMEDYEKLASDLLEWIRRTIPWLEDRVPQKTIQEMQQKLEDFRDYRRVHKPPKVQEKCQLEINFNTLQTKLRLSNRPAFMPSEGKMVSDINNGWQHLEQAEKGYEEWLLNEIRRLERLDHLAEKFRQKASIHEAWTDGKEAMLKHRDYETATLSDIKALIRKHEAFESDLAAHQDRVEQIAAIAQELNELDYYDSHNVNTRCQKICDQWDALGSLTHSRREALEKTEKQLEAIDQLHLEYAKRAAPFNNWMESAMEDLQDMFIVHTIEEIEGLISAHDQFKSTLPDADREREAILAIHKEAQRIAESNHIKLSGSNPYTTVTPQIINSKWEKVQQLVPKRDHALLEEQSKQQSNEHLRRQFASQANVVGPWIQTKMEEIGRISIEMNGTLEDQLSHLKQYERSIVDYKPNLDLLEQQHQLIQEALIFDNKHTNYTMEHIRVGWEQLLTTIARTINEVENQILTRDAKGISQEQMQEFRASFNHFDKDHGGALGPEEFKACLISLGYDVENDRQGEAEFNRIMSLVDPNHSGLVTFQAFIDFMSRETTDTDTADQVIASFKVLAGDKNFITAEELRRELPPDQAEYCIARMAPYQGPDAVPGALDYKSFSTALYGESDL

Experiments:
[1] = biological target: T1, RASSF1A (human (endogenous in HeLa)) (UniProt Q9NS23); assay: co-IP; HeLa nuclear extracts incubated with anti-RASSF1A overnight at 4°C, protein G Dynabeads, RIPA washes, immunoblot; cells under mechanical stimulation
T1 sequence: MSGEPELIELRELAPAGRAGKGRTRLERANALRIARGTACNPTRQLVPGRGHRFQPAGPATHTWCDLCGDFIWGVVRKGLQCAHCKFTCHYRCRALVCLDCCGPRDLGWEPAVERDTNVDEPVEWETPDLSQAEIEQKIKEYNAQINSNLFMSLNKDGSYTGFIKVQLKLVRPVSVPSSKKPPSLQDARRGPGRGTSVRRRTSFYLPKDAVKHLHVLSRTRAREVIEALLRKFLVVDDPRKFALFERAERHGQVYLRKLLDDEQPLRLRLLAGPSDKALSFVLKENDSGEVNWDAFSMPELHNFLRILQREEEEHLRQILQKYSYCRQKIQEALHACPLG

[2] = biological target: T1, RASSF1A (human (endogenous in HeLa)); assay: co-IP; endogenous RASSF1A immunoprecipitated from 500 μg total HeLa protein with 2 μg anti-RASSF1A overnight at 4°C, protein G Dynabeads, immunoblot; cells with or without mechanical stress

| binding [1] | binding [2] | Substance |
| --- | --- | --- |
| binds |  | Ataxia telangiectasia and Rad3-related protein (ATR) (from UniProt Q13535 1-2644) (enzyme) |
|  | binds | Filamin-A (from UniProt P21333 1-2647) |
|  | binds | α-actinin 4 (ACTN4) (from UniProt O43707 1-911) |
